At least one compound was matched to its structure with a doubt left.
How the values were obtained:
M2 cells = experiment: Troglitazone-induced adipogenesis, oil Red O staining and adipocyte count; format: cell-based, mouse; settings: M2 cells treated with Tro
Experimental: Von Kossa and oil red O staining—Matrix mineralization in cell monolayers was detected by silver nitrate staining as previously described. Oil red O staining for detection of adipocytes was performed as previously described.
Test 1: M2 cells at 90% confluence were treated with vehicle (C), PPAR-γ activator, troglitazone 10 uM (Tro), alone or in combination with 10 μM oxysterols 20S-, 22R-, or 25S-hydroxycholesterol. After 8 days, adipocytes were identified by oil Red 0 staining and quantified by counting under a phase contrast microscope. FIG. 6A is a bar graph depicting the effect of oxysterols on reducing adipogenesis of MSC.
Test 2: (A) M2 cells at confluence were treated in RPMI containing 10% FBS with control vehicle or 10 μM troglitazone (Tro) in the absence or presence of 10 μM 20S or 22S oxysterols. After 10 days, adipocytes were visualized by oil Red O staining and quantified by light microscopy, shown in (B). […] (C) M2 cells were treated at confluence with 10 μM Tro, alone or in combination with 10 μM 20S oxysterol. After 10 days, total RNA was isolated and analyzed for lipoprotein lipase (LPL), adipocyte P2 gene (aP2) or 18S rRNA expression by Northern blotting as described (Ref). Data from densitometric analysis of the Northern blot is shown in (D) as the average of duplicate samples, normalized to 18S rRNA.

[1] = system: M2-10B4 marrow stromal cells; experiment: Colorimetric alkaline phosphatase (ALP) activity assay on whole cell extracts; settings: 0.5-10 μM

Structure (SMILES) | relative anti-adipogenic potency (M2 cells) [S>22S>22R] | relative potency in induction of alkaline phosphatase activity [1] [S>22S>22R]
CC(C)CCC[C@](C)(O)[C@H]1CC[C@H]2[C@@H]3CC=C4C[C@@H](O)CC[C@]4(C)[C@H]3CC[C@@]21C [20S-hydroxycholesterol] | 20 | 20
CC(C)CC[C@H](O)[C@@H](C)[C@H]1CC[C@H]2[C@@H]3CC=C4C[C@@H](O)CC[C@]4(C)[C@H]3CC[C@]12C [22S-hydroxycholesterol] | 20 | 20

From patent US20090202660A1, “Agents and Methods for Osteogenic Oxysterols Inhibition of Oxidative Stress on Osteogenic Cellular Differentiation” (The Regents of the University of California, priority 2005, published 2009)
